Experimental data: PubChem BioAssay AID504834 (National Center for Advancing Translational Sciences (NCATS), 2011)
The whole screen tested about 320,000 compounds, of which about 22,000 (6.9%) were called active. The inconclusive results got no clear call from the source; some entries with a clear call stand among them for comparison. Calls follow the shape of the dose curve; as a rule, active = well fitted inhibition curve with a large enough effect; inconclusive = small, poorly fitted or top-dose-only effect, or another doubt; inactive = no such curve, though single readings can be large or run the other way. A potency beside an inconclusive call is a rough fit, not a confirmed value.

Assay: Primary qHTS for delayed death inhibitors of the malarial parasite plastid, 96 hour incubation
Details: P. falciparum luciferase reporter growth; series mostly up to 28.7 µM; activity change, negative = inhibition: at the top concentration
Outline: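 Infected RBCs, 2% Hct / 0.05% parasitemia final; luciferase-reporter P. falciparum; cpd 96 h, 37 C, 5% CO2; luciferase detection reagent; luminescence.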
% is scaled to controls: 0 for no effect and ±100 for the full control effect; potency is read from the fitted curve at half-maximal effect.

| Structure (SMILES) | Potency | activity change, negative = inhibition |
| --- | --- | --- |
| CCOC(=O)C1CCCN(c2c(N3CCOCC3)c(=O)c2=O)C1 (stereo not drawn) | inconclusive: 18.5 µM [inhibitor, single point] |  |
| COc1ccc(-c2nnc3c4ccccc4c(C)nn23)cc1 |  | inactive: 16.4% |
| OCC1CCCN(C(=S)Nc2ccc(Nc3ccccc3)cc2)C1 (stereo not drawn) | inconclusive: 18.5 µM [inhibitor, single point] |  |
| CN(C)C(=O)c1ccc2c(c1[N+](=O)[O-])C(=O)c1ccccc1C2=O | inconclusive: 2.08 µM [inhibitor, full curve, poor fit] |  |
| COc1ccccc1CC(=O)Nc1ccc(-c2noc(COc3cccc(C)c3C)n2)cc1 | active: 14.7 µM |  |
| Cc1ccc(-n2ncc3c(NNC(=O)c4ccco4)ncnc32)cc1Cl | inconclusive: 0.37 µM [inhibitor, full curve, poor fit] |  |
| COc1ccc(/C=C(\NC(=O)c2ccccc2)C(=O)N/N=C/c2cccnc2)cc1 | inconclusive: 18.5 µM [inhibitor, single point] |  |
| CCOC(=O)C1=C(C)NC(=S)NC1c1ccc(OCC(=O)N2CCCCC2)cc1 (stereo not drawn) | inconclusive: 3.7 µM [inhibitor, full curve, poor fit] |  |
| CC1=C(C(=O)Nc2cccc(C(=O)N3CCC(C(N)=O)CC3)c2)SCCO1 |  | inactive: -1.6% |
| Cc1nc(N2CCN(c3ccccc3)CC2)[nH]c(=O)c1Cc1cccc2ccccc12 | inconclusive: 13.1 µM [inhibitor, single point] |  |
| CCOC(=O)c1ccc(Oc2nc(NC)nc(OC)n2)cc1 |  | inactive: 1.26% |
| CCC(CC)N1CCN(C(=O)c2cccc(Cl)c2)CC1 | active: 13.1 µM |  |
| Cc1ccc(N2CC(O)Cn3c2nc2c3c(=O)[nH]c(=O)n2C)cc1 (stereo not drawn) | inconclusive: 10.4 µM [inhibitor, single point] |  |
| NS(=O)(=O)c1ccc(CCNC(c2ccccc2)c2ccccc2)cc1 |  | inactive: 11.3% |
| COc1ccc(Cl)cc1NC(=O)CN(C)C(=O)c1ccc(C)s1 |  | inactive: 10% |
| Cc1ccc(CN2CCN(Cc3ccncc3)CC2CCO)o1 (stereo not drawn) | inconclusive: 18.5 µM [inhibitor, single point] |  |
| Cc1ccc(NC(=O)c2nc[nH]c2C(=O)N[C@@H](C)C(=O)OC(C)(C)C)cc1 | inconclusive: 13.1 µM [inhibitor, partial curve] |  |
| O=C1N/C(=N/S(=O)(=O)Cc2ccccc2)S/C1=C/c1ccc2c(c1)OCO2 |  | inactive: 0.892% |
| CC(OC(=O)c1ccc(Cl)c(S(=O)(=O)N2CCCC2)c1)C(=O)NC1CCCCC1C (stereo not drawn) | inconclusive: 10.4 µM [inhibitor, single point] |  |
| COc1ccc(OC)c(C2=NOC(C(=O)Nc3cc(C)nn3-c3ccccc3)C2)c1 (stereo not drawn) | inconclusive: 10.4 µM [inhibitor, single point] |  |
| CNc1ccc2oc(C[C@H]3O[C@@]4(CC[C@H]3C)O[C@H]([C@H](C)C(=O)c3ccc[nH]3)[C@H](C)C[C@H]4C)nc2c1C(=O)O | active: 0.415 µM |  |
| Clc1nc(NC2CCCC2)nc(N2CCOCC2)n1 | active: 11.7 µM |  |
| CN(CC(=O)Nc1ccc(Cl)c(Cl)c1)CC(=O)Nc1ccc2c(c1)OCO2 |  | inactive: 46.2% |

| Structure (SMILES) | Potency | activity change, negative = inhibition |
| --- | --- | --- |
| COc1cc(C(C[N+](=O)[O-])c2c(C)[nH]c3ccccc23)ccc1O (stereo not drawn) | inconclusive: 18.5 µM [inhibitor, single point] |  |
| O=C(O)CCN1CCc2ccccc2C1c1ccncc1 (stereo not drawn) |  | inactive: 32.2% |
| O=C1CC(c2ccco2)CC(O)=C1C=NCC1CCNCC1 (stereo not drawn) | inconclusive: 10.4 µM [inhibitor, partial curve, poor fit] |  |
| O=C(CC1S/C(=N/N=C/c2cccs2)NC1=O)Nc1ccccc1F (stereo not drawn) | inconclusive: 0.465 µM [inhibitor, full curve] |  |
| CSc1nc2ccc(NC(=O)c3ccc(=O)[nH]c3)cc2s1 | inconclusive: 11.7 µM [inhibitor, partial curve, poor fit] |  |
| COc1ccc(NS(=O)(=O)c2ccc(N3CCOCC3)c(NC(=O)c3ccc(F)cc3)c2)cc1 | inconclusive: 13.1 µM [inhibitor, partial curve] |  |
| COc1ccc(C2=NCc3nnc(C)n3-c3ccc(Cl)cc32)cc1Cl | inconclusive: 18.5 µM [inhibitor, single point] |  |
| COc1ccc(-c2csc(NC(=O)CSc3nnc(Nc4ccccc4C)s3)n2)cc1 | inconclusive: 9.28 µM [inhibitor, partial curve, poor fit] |  |
| Cc1cc2cc(CNC(=O)c3ccc(S(=O)(=O)N4CCOCC4)cc3)ccc2[nH]1 | inconclusive: 9.28 µM [inhibitor, single point] |  |
| O=C(C1CC1)N1CCN(c2ccc([N+](=O)[O-])cc2-n2cccc2)CC1 |  | inactive: 3.74% |
| COc1ccc(NC(=S)N/C(=N/CS(=O)(=O)c2ccccc2)c2ccccc2)cc1 |  | inactive: 13.9% |
| CC(=O)Nc1ccc(S(=O)(=O)N2CCCCC2C(=O)O)cc1 (stereo not drawn) | inconclusive: 11.7 µM [inhibitor, single point] |  |
| O=C(O)c1ccc(-c2nc(-c3ccccc3)c(-c3cccs3)[nH]2)cc1 |  | inactive: 55.9% |
| O=C(c1cccs1)n1nc(-c2ccco2)nc1SCc1ccccc1 | inconclusive: 0.0586 µM [inhibitor, full curve, poor fit] |  |
| CCN(CC)S(=O)(=O)c1ccc(N2CCCC2)c(NS(=O)(=O)c2ccc([N+](=O)[O-])cc2)c1 | inconclusive: 18.5 µM [inhibitor, single point] |  |
| Clc1ccc(-c2nnc(NCCN3CCCC3)c3ccccc23)cc1 | inconclusive: 18.5 µM [inhibitor, single point] |  |
| CC1CCCN(c2ccc(C(=O)Nc3ccc4c(c3)OCO4)cc2[N+](=O)[O-])C1 (stereo not drawn) | inconclusive: 11.7 µM [inhibitor, partial curve, poor fit] |  |
| Cc1nc(SCN2C(=O)c3ccccc3C2=O)n[nH]1 |  | inactive: 7.81% |
| COC(=O)c1ccc(Cn2nnc3c(=O)[nH]c(C4CCCN(S(=O)(=O)c5cccc(Cl)c5)C4)nc32)cc1 (stereo not drawn) | inconclusive: 1.65 µM [inhibitor, partial curve, poor fit] |  |
| Cc1ccccc1NC(=O)Cc1nc(CN(C)CC(=O)Nc2cccc(F)c2)cs1 | inconclusive: 18.5 µM [inhibitor, single point] |  |
| O=C(C=C1SCCS1)/C=C/c1ccco1 |  | inactive: 331% |
| O=C(COC(=O)c1cccnc1Cl)c1ccccc1 | inconclusive: 0.0029 µM [inhibitor, full curve] |  |
| COc1cccc(NC(=O)Cn2c(CCC(=O)O)ccc2-c2ccccc2)c1 |  | inactive: 13% |

| Structure (SMILES) | Potency | activity change, negative = inhibition |
| --- | --- | --- |
| Cc1ccc(/C=C2/NC(=O)N(Cc3ccccc3F)C2=O)s1 | inconclusive: 0.0037 µM [inhibitor, full curve, poor fit] |  |
| COc1cccc2c1Oc1ncccc1N(C(=O)CCC(=O)NCc1ccccc1Cl)C2 | inconclusive: 11.7 µM [inhibitor, single point] |  |
| CN(CC(=O)Nc1ccccc1Br)CC(=O)Nc1ccccc1-c1ccccc1 | inconclusive: 10.4 µM [inhibitor, single point] |  |
| Cc1ccc(S(=O)(=O)CCC(=O)c2cccc([N+](=O)[O-])c2)cc1 |  | inactive: 32.7% |
| COCCCN(CC(=O)Nc1ccc(N2CCOCC2)cc1)S(=O)(=O)c1ccc(Cl)cc1 |  | inactive: -6.72% |
| CCCCCCSc1ccc([C@H]2N[C@@](C)(C(=O)OC)[C@H]3C(=O)N(C)C(=O)[C@@H]23)cc1 | inconclusive: 20.8 µM [inhibitor, partial curve, poor fit] |  |
| CCn1c(SCC(=O)NCC2CCCO2)nnc1-c1ccc(Cl)cc1 (stereo not drawn) | inconclusive: 18.5 µM [inhibitor, single point] |  |
| COCc1ccc(CN2CCCC(CCC(=O)NCc3ccc(C)o3)C2)o1 (stereo not drawn) | inconclusive: 18.5 µM [inhibitor, single point] |  |
| CCCCCNC(=O)c1ccc2c(=O)n(CCCN3CCCC3=O)c(=S)[nH]c2c1 | active: 10.4 µM |  |
| CC(=O)Oc1ccc2c(=O)oc(-c3ccccc3C)nc2c1 |  | inactive: 72% |
| CCOC(=O)C1CCN(S(=O)(=O)c2c(C)noc2C)CC1 |  | inactive: 13.3% |
| S=C(NCc1ccccc1)Nc1ccc2ccccc2c1 | inconclusive: 18.5 µM [inhibitor, single point] |  |
| CN(CCCNC(=O)c1nn(C)c2c1CS(=O)(=O)c1ccccc1-2)Cc1ccccc1 | inconclusive: 0.465 µM [inhibitor, full curve, poor fit] |  |
| NC(=O)C1(N2CCCCC2)CCN(Cc2nc3ccccc3c(=O)[nH]2)CC1 |  | inactive: 14.6% |
| Cc1ccc(S(=O)(=O)N2CCC(C(=O)NCCc3ccc(S(N)(=O)=O)cc3)CC2)cc1 | inconclusive: 18.5 µM [inhibitor, single point] |  |
| Cc1onc(C(=O)N2CCN(C(c3ccccc3)c3ccccc3)CC2)c1[N+](=O)[O-] | inconclusive: 14.7 µM [inhibitor, single point] |  |
| COCC1CCCN(C(=O)c2cc(COc3cncc(Cl)c3)on2)C1 (stereo not drawn) | inconclusive: 14.7 µM [inhibitor, single point] |  |
| CC(C)C[C@H](NC(=O)C1CC(=O)N(c2ccc3c(c2)OCO3)C1)C(=O)NC1CCCCC1 (stereo partly drawn) |  | inactive: -40.8% |
| CCN1CCN(C(c2cc(OC)ccc2OC)c2nnnn2Cc2ccccc2)CC1 (stereo not drawn) | inconclusive: 18.5 µM [inhibitor, single point] |  |
| CC1CCN(C(=O)CSc2nc3cccnc3n2C)CC1 | inconclusive: 18.5 µM [inhibitor, partial curve, poor fit] |  |
| CCN(CC)CCCN1C=C2C(=O)C(C)(OC(=O)CCc3ccccc3)C(=O)C=C2C=C1c1ccc(C#N)cc1 (stereo not drawn) | inconclusive: 14.7 µM [inhibitor, single point] |  |
| O=C(O)C1SCCN1S(=O)(=O)c1ccc(N=NN2CCOCC2)cc1 (stereo not drawn) | active: 1.85 µM |  |

Part of the list above in order of formula weight, ascending:

| Structure (SMILES) | Potency | activity change, negative = inhibition |
| --- | --- | --- |
| Cc1ccc(/C=C2/NC(=O)N(Cc3ccccc3F)C2=O)s1 | inconclusive: 0.0037 µM [inhibitor, full curve, poor fit] |  |
| COCC1CCCN(C(=O)c2cc(COc3cncc(Cl)c3)on2)C1 (stereo not drawn) | inconclusive: 14.7 µM [inhibitor, single point] |  |
| NC(=O)C1(N2CCCCC2)CCN(Cc2nc3ccccc3c(=O)[nH]2)CC1 |  | inactive: 14.6% |
| CCCCCNC(=O)c1ccc2c(=O)n(CCCN3CCCC3=O)c(=S)[nH]c2c1 | active: 10.4 µM |  |
| CCN1CCN(C(c2cc(OC)ccc2OC)c2nnnn2Cc2ccccc2)CC1 (stereo not drawn) | inconclusive: 18.5 µM [inhibitor, single point] |  |
| COCCCN(CC(=O)Nc1ccc(N2CCOCC2)cc1)S(=O)(=O)c1ccc(Cl)cc1 |  | inactive: -6.72% |
